# The source gives many values for each of these; only a part stands here.
# System: moderate-to-severe chronic spontaneous urticaria (CSU)
# Test: Phase 2 CSU study: urticaria activity score over 7 days (UAS7)
# Assay type: in vivo, human
# Design: key to UAS7 Change from baseline LS Mean (SE): UAS7 points; daily UAS score ranges 0–6 points/day, over 7 days
# Conditions: Omalizumab-Naïve Population with Outlier Removed
# Excerpt: The study comprises a 12 week, randomized, double-blind, placebo-controlled, multi-center, dose-ranging efficacy and safety phase, followed by a 40 week open label extension (OLE) phase (see FIG. 1). The study consists of three phases and an optional OLE phase. […] Clinically, CSU is characterized by the spontaneous and recurrent appearance of pruritic hives. The proposed primary endpoints were the UAS7 at Week 12 in EU and EU reference countries and the ISS7 in the US. Regardless of where a participant was from, all assessments were the same. The UAS7 score is a composite score containing both the HSS7 and the ISS7. This allowed a global assessment of the two key components of urticaria: hives and itch. […] The UAS is a validated PRO measure. […] The daily UAS scores range from 0 to 6 point/day. […] Patients were to complete the UAS using the e-diary. […] The following secondary endpoints were to be analyzed using the same approach as for the primary endpoint: • Change from baseline in UAS7 at Week 4 • Change from baseline in UAS7 at Week 12 (for US and US reference countries) • Change from baseline in ISS7 at Week 12 (except US and US reference countries) • Change from baseline in HSS7 at Week 12 The following responder secondary endpoints were to be analyzed using the Cochran-Mantel-Haenszel test adjusted by region: • Proportion of participants with UAS7<6 at Week 12 • Proportion of participants with UAS7=0 at Week 12 Participants who received selected prohibited medications and/or rescue medications were to be considered as non-responders for time points after the medication usage. For other participants, all available data including those collected during the off-treatment period were to be used to determine the responder/non-responder status. Missing data were to be considered as non-responders.
smiles,measurement,setting,value
"CC(C)(C=C(C#N)C(=O)N1CCC[C@@H](n2nc(-c3ccc(Oc4ccccc4)cc3F)c3c(N)ncnc32)C1)N1CCN(C2COC2)CC1 [rilzabrutinib, (R)-2-[3-[4-amino-3-(2-fluoro-4-phenoxy-phenyl)pyrazolo[3,4-d]pyrimidin-1-yl]piperidine-1-carbonyl]-4-methyl-4-[4-(oxetan-3-yl)piperazin-1-yl]pent-2-enenitrile]",UAS7 % Change difference for rilzabrutinib vs. placebo LS Mean (95% CI),"400 mg BID, Week 1",−25.02 %
same,UAS7 % Change from baseline LS Mean (SE),"400 mg BID, Week 1",−34.55 (5.64) %
same,UAS7 Change difference for rilzabrutinib vs. placebo LS Mean (95% CI),"400 mg BID, Week 1","−6.25 (−11.33, −1.16)"
same,UAS7 Change from baseline LS Mean (SE),"400 mg BID, Week 1",−9.85 (1.58)
same,UAS7 % Change difference for rilzabrutinib vs. placebo LS Mean (95% CI),"400 mg BID, Week 2",−18.63 %
same,UAS7 % Change from baseline LS Mean (SE),"400 mg BID, Week 2",−36.40 (5.49) %
same,UAS7 Change difference for rilzabrutinib vs. placebo LS Mean (95% CI),"400 mg BID, Week 2","−4.57 (−8.75, −0.39)"
same,UAS7 % Change difference for rilzabrutinib vs. placebo LS Mean (95% CI),"400 mg BID, Week 3",−20.05 %
same,UAS7 % Change from baseline LS Mean (SE),"400 mg BID, Week 3",−40.21 (5.67) %
same,UAS7 Change difference for rilzabrutinib vs. placebo LS Mean (95% CI),"400 mg BID, Week 3","−5.12 (−9.46, −0.78)"
same,UAS7 Change from baseline LS Mean (SE),"400 mg BID, Week 3",−11.96 (1.63)
same,UAS7 % Change difference for rilzabrutinib vs. placebo LS Mean (95% CI),"400 mg BID, Week 4",−22.88 %
same,UAS7 % Change from baseline LS Mean (SE),"400 mg BID, Week 4",−43.62 (5.90) %
same,UAS7 Change difference for rilzabrutinib vs. placebo LS Mean (95% CI),"400 mg BID, Week 4","−5.82 (−10.34, −1.30)"
same,UAS7 Change from baseline LS Mean (SE),"400 mg BID, Week 4",−12.88 (1.70)
same,UAS7 % Change from baseline LS Mean (SE),"400 mg BID, Week 5",−41.62 (5.69) %
same,UAS7 Change difference for rilzabrutinib vs. placebo LS Mean (95% CI),"400 mg BID, Week 5","−1.59 (−6.13, 2.96)"
same,UAS7 Change from baseline LS Mean (SE),"400 mg BID, Week 5",−12.04 (1.71)
same,UAS7 % Change difference for rilzabrutinib vs. placebo LS Mean (95% CI),"400 mg BID, Week 6",−14.22 %
same,UAS7 % Change from baseline LS Mean (SE),"400 mg BID, Week 6",−41.32 (6.30) %
same,UAS7 Change difference for rilzabrutinib vs. placebo LS Mean (95% CI),"400 mg BID, Week 6","−2.96 (−7.92, 2.01)"
same,UAS7 Change from baseline LS Mean (SE),"400 mg BID, Week 6",−12.20 (1.86)
same,UAS7 % Change difference for rilzabrutinib vs. placebo LS Mean (95% CI),"400 mg BID, Week 7",−18.59 %
same,UAS7 % Change from baseline LS Mean (SE),"400 mg BID, Week 7",−47.24 (5.95) %
same,UAS7 Change difference for rilzabrutinib vs. placebo LS Mean (95% CI),"400 mg BID, Week 7","−4.50 (−9.19, 0.19)"
same,UAS7 Change from baseline LS Mean (SE),"400 mg BID, Week 7",−14.01 (1.76)
same,UAS7 % Change difference for rilzabrutinib vs. placebo LS Mean (95% CI),"400 mg BID, Week 8",−22.01 %
same,UAS7 % Change from baseline LS Mean (SE),"400 mg BID, Week 8",−53.10 (6.28) %
same,UAS7 Change difference for rilzabrutinib vs. placebo LS Mean (95% CI),"400 mg BID, Week 8","−5.41 (−10.40, −0.43)"
same,UAS7 Change from baseline LS Mean (SE),"400 mg BID, Week 8",−15.43 (1.86)
same,UAS7 % Change difference for rilzabrutinib vs. placebo LS Mean (95% CI),"400 mg BID, Week 9",−25.22 %
same,UAS7 % Change from baseline LS Mean (SE),"400 mg BID, Week 9",−52.05 (6.41) %
same,UAS7 Change difference for rilzabrutinib vs. placebo LS Mean (95% CI),"400 mg BID, Week 9","−6.02 (−11.15, −0.89)"
same,UAS7 Change from baseline LS Mean (SE),"400 mg BID, Week 9",−14.88 (1.92)
same,UAS7 % Change difference for rilzabrutinib vs. placebo LS Mean (95% CI),"400 mg BID, Week 10",−21.34 %
same,UAS7 % Change from baseline LS Mean (SE),"400 mg BID, Week 10",−51.72 (6.74) %
same,UAS7 Change difference for rilzabrutinib vs. placebo LS Mean (95% CI),"400 mg BID, Week 10","−5.41 (−10.69, −0.13)"
same,UAS7 Change from baseline LS Mean (SE),"400 mg BID, Week 10",−15.06 (1.99)
same,UAS7 % Change difference for rilzabrutinib vs. placebo LS Mean (95% CI),"400 mg BID, Week 11",−21.48 %
same,UAS7 % Change from baseline LS Mean (SE),"400 mg BID, Week 11",−49.79 (6.87) %
same,UAS7 Change difference for rilzabrutinib vs. placebo LS Mean (95% CI),"400 mg BID, Week 11","−5.15 (−10.44, 0.15)"
same,UAS7 Change from baseline LS Mean (SE),"400 mg BID, Week 11",−14.46 (1.99)
same,UAS7 % Change difference for rilzabrutinib vs. placebo LS Mean (95% CI),"400 mg BID, Week 12",−18.45 %
same,UAS7 % Change from baseline LS Mean (SE),"400 mg BID, Week 12",−49.10 (7.03) %
same,UAS7 Change difference for rilzabrutinib vs. placebo LS Mean (95% CI),"400 mg BID, Week 12","−4.29 (−9.74, 1.16)"
same,UAS7 Change from baseline LS Mean (SE),"400 mg BID, Week 12",−14.30 (2.06)
same,UAS7 % Change difference for rilzabrutinib vs. placebo LS Mean (95% CI),"400 mg QPM, Week 1",−12.25 %
same,UAS7 % Change from baseline LS Mean (SE),"400 mg QPM, Week 1",−21.78 (5.44) %
same,UAS7 Change difference for rilzabrutinib vs. placebo LS Mean (95% CI),"400 mg QPM, Week 1","−3.54 (−8.57, 1.49)"
same,UAS7 Change from baseline LS Mean (SE),"400 mg QPM, Week 1",−7.14 (1.53)
same,UAS7 % Change difference for rilzabrutinib vs. placebo LS Mean (95% CI),"400 mg QPM, Week 2",−6.70 %
same,UAS7 % Change from baseline LS Mean (SE),"400 mg QPM, Week 2",−24.47 (5.29) %
same,UAS7 Change difference for rilzabrutinib vs. placebo LS Mean (95% CI),"400 mg QPM, Week 2","−1.89 (−6.02, 2.24)"
same,UAS7 Change from baseline LS Mean (SE),"400 mg QPM, Week 2",−7.82 (1.52)
same,UAS7 % Change difference for rilzabrutinib vs. placebo LS Mean (95% CI),"400 mg QPM, Week 3",−8.86 %
same,UAS7 % Change from baseline LS Mean (SE),"400 mg QPM, Week 3",−29.02 (5.48) %
same,UAS7 Change difference for rilzabrutinib vs. placebo LS Mean (95% CI),"400 mg QPM, Week 3","−2.44 (−6.74, 1.86)"
same,UAS7 Change from baseline LS Mean (SE),"400 mg QPM, Week 3",−9.28 (1.58)
same,UAS7 % Change difference for rilzabrutinib vs. placebo LS Mean (95% CI),"400 mg QPM, Week 4",−7.91 %
same,UAS7 % Change from baseline LS Mean (SE),"400 mg QPM, Week 4",−28.65 (5.66) %
same,UAS7 Change difference for rilzabrutinib vs. placebo LS Mean (95% CI),"400 mg QPM, Week 4","−2.24 (−6.70, 2.22)"
same,UAS7 Change from baseline LS Mean (SE),"400 mg QPM, Week 4",−9.30 (1.64)
same,UAS7 % Change difference for rilzabrutinib vs. placebo LS Mean (95% CI),"400 mg QPM, Week 5",0.57 %
same,UAS7 % Change from baseline LS Mean (SE),"400 mg QPM, Week 5",−32.16 (5.50) %
same,UAS7 Change difference for rilzabrutinib vs. placebo LS Mean (95% CI),"400 mg QPM, Week 5","0.16 (−4.35, 4.67)"
same,UAS7 Change from baseline LS Mean (SE),"400 mg QPM, Week 5",−10.29 (1.65)
same,UAS7 % Change difference for rilzabrutinib vs. placebo LS Mean (95% CI),"400 mg QPM, Week 6",−6.33 %
same,UAS7 % Change from baseline LS Mean (SE),"400 mg QPM, Week 6",−33.42 (6.12) %
same,UAS7 Change difference for rilzabrutinib vs. placebo LS Mean (95% CI),"400 mg QPM, Week 6","−1.41 (−6.38, 3.55)"
same,UAS7 Change from baseline LS Mean (SE),"400 mg QPM, Week 6",−10.66 (1.81)
same,UAS7 % Change difference for rilzabrutinib vs. placebo LS Mean (95% CI),"400 mg QPM, Week 7",−5.53 %
same,UAS7 % Change from baseline LS Mean (SE),"400 mg QPM, Week 7",−34.18 (5.81) %
same,UAS7 Change from baseline LS Mean (SE),"400 mg QPM, Week 7",−10.66 (1.72)
same,UAS7 % Change difference for rilzabrutinib vs. placebo LS Mean (95% CI),"400 mg QPM, Week 8",−4.03 %

# — patent publication US20260256792A1, “TREATMENT OF CHRONIC SPONTANEOUS URTICARIA BY ADMINISTERING (R)-2-[3-[4-AMINO-3-(2-FLUORO-4-PHENOXY-PHENYL)PYRAZOLO[3,4-D]PYRIMIDIN-1-YL]PIPERIDINE-1-CARBONYL]-4-METHYL-4-[4-(OXETAN-3-YL)PIPERAZIN-1-YL]PENT-2-ENENITRILE” (priority 2023, published 2026)
